According to paper PMC5120335:
These are yes or no findings as the source states them, for the method shown. In cells and extracts the contact can be indirect. Some results given as binding are weak or reduced against the parent protein; the word gives no strength.

Protein sequences, listed by entry. Tags and fused reporters are not part of them. Lines headed by an entry give the natural chain unless they say otherwise; changes in a name come on top.
UniProt Q62388: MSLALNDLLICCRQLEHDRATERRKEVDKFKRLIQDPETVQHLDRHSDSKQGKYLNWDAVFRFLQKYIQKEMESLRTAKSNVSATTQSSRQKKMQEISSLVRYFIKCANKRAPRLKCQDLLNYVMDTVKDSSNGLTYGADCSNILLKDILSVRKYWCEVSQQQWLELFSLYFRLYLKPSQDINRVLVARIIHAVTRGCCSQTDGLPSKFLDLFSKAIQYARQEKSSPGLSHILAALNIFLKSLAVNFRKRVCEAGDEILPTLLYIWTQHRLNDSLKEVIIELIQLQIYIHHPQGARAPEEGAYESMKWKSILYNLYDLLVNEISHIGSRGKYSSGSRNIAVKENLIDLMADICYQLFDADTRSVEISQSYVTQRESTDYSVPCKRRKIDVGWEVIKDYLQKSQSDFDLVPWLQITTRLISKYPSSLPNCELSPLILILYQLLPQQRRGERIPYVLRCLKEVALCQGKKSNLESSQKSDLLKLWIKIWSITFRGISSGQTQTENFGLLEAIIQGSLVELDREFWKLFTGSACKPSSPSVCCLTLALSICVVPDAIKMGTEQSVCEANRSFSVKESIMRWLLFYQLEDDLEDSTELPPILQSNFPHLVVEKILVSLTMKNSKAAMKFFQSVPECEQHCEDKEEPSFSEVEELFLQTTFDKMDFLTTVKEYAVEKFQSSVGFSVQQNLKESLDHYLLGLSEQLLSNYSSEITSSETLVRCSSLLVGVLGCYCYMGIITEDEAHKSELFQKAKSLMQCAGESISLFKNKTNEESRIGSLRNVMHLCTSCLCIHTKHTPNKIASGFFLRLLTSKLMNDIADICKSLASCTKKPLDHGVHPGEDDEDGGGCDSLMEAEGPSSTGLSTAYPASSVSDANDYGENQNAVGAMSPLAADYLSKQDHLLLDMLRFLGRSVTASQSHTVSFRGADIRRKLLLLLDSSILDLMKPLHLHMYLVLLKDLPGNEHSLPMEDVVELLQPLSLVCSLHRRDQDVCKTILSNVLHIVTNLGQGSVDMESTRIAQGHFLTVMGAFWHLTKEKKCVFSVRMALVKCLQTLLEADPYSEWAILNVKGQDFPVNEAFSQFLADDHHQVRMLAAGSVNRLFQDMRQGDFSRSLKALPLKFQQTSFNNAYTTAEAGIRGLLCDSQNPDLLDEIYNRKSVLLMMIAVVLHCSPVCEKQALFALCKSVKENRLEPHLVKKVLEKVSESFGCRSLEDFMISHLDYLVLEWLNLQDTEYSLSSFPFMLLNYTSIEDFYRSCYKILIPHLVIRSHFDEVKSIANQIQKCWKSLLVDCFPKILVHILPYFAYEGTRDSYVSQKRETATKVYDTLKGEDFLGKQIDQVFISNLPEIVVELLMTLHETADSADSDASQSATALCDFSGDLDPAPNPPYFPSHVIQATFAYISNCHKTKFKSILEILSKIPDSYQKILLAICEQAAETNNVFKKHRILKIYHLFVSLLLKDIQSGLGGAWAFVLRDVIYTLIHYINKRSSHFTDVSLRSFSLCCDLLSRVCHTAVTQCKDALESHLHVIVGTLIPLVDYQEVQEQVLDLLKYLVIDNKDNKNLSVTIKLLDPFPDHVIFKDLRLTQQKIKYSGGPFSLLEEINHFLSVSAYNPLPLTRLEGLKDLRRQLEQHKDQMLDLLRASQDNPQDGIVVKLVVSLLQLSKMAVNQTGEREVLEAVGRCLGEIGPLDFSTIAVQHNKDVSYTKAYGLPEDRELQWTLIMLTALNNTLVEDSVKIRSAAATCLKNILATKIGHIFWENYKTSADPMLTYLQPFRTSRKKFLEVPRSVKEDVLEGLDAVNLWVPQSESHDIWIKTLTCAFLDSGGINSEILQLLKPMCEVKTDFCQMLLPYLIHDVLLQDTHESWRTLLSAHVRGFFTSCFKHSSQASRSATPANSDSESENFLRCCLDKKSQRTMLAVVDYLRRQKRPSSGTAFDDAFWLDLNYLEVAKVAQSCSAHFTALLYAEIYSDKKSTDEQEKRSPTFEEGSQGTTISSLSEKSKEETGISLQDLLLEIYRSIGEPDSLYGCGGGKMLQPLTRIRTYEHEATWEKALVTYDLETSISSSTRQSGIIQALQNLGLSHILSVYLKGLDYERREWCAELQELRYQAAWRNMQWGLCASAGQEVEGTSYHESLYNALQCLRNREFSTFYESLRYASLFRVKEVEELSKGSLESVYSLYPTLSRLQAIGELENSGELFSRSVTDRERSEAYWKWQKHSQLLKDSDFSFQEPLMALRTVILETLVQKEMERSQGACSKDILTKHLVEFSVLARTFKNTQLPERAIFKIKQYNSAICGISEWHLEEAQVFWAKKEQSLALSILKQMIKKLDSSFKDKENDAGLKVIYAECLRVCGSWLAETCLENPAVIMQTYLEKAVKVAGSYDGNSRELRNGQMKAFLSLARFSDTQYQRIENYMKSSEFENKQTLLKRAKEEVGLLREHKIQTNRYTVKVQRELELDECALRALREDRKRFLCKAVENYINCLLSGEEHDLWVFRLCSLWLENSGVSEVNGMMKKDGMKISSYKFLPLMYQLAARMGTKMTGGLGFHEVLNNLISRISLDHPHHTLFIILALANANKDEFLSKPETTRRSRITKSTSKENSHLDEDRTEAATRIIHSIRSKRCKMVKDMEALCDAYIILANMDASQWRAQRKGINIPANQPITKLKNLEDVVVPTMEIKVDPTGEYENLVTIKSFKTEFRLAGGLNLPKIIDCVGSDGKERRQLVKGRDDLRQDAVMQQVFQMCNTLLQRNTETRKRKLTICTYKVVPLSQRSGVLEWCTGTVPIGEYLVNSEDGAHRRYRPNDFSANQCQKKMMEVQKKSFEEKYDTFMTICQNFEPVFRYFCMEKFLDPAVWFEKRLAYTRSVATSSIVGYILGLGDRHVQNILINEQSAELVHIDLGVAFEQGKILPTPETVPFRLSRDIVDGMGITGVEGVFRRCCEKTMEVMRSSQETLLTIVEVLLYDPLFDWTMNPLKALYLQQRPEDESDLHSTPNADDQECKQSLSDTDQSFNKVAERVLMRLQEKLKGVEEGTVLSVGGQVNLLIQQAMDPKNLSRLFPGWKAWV

Target: T1, Dclk1 (mouse (endogenous in IECs of Dclk1f/f mice and in YAMC cells)) (UniProt Q9JLM8)
T1 sequence: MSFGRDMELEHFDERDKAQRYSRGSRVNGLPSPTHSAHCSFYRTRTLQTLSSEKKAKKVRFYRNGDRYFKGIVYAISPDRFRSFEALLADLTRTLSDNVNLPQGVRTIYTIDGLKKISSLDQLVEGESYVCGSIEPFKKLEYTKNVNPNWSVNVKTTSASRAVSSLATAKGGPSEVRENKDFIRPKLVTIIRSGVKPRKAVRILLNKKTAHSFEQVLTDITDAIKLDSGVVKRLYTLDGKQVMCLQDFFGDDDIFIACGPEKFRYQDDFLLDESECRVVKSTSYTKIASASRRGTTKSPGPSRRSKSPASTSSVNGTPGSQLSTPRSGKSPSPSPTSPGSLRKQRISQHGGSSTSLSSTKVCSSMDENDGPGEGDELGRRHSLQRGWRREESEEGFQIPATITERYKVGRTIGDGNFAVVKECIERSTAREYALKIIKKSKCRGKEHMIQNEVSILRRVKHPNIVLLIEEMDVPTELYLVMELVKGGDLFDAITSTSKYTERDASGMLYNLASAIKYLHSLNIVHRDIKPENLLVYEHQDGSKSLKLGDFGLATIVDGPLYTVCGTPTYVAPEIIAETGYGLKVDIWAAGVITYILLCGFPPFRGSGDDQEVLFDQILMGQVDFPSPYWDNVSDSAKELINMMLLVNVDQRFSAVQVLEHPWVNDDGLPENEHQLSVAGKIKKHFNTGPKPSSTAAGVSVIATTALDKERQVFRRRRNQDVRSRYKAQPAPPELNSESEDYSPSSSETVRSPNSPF
Assay: co-IP; IEC extracts from Dclk1f/f mice at homeostasis, 24 h and 84 h post-TBI (12 Gy); pre-cleared, incubated overnight at 4 °C with antibody recognizing Dclk1, captured on protein A/G-Sepharose; blotted with antibody to ATM or Cox2

ATM (ataxia-telangiectasia mutated) (from UniProt Q62388 1-3066)
binding: binds
